# Reference: PubChem BioAssay AID662 (National Center for Advancing Translational Sciences (NCATS), 2007)
# Some of the results follow. Shown are side measurements of this screen, not its main read-out; they come without a call. The list favours compounds with an active or inconclusive main result. Words in brackets tell the shape of the fitted curve; partial curves, single points and poor fits give uncertain potencies.
# Assay: Cell signaling CRE-BLA (Fsk stim)
# Conditions: CHO CRE-bla reporter (cAMP response element driving beta-lactamase), forskolin EC10, beta-lactamase ratio; measured here: 460 nm blue channel
# How it was run: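 Reporter-gene assay: CHO cells with beta-lactamase behind cAMP responsive elements, co-treated with compound and EC10 NKH 477 for 3 hours at 37 degrees Celsius. Activity came from the 460/530 nm CCF4 emission ratio.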
row,Structure (SMILES),AC50
1,COc1ccccc1CCn1c(=O)c(-c2ccccc2)nc2cncnc21,"10 µM [rising, partial curve]"
2,O=C(NCCc1ccc(Cl)cc1)C1CCN(S(=O)(=O)c2cccc3nonc23)CC1,"0.251 µM [falling, partial curve]"
3,COc1ccc(C(=O)Nc2ccc(-c3ccc(C)o3)cc2)cc1S(=O)(=O)N1CCOCC1,"10 µM [falling, partial curve]"
4,C=CCc1cccc2cc(C(=O)NC)c(=O)oc12,"25.1 µM [rising, single point]"
5,O=c1nc(C(F)(F)F)nc2ccccn12,"25.1 µM [rising, single point]"
6,CCn1cnc2sc(C(=O)N(Cc3ccc(N(C)C)cc3)Cc3ccco3)c(C)c2c1=O,"5.01 µM [rising, full curve, poor fit]"
7,Cc1ccc(-n2nnnc2SCC(=O)NC(=O)Nc2ccc3c(c2)OCCO3)cc1,"5.01 µM [falling, single point]"
8,O=C(COC(=O)c1ccc(S(=O)(=O)N2CCCC2)cc1)NCc1ccccc1,"5.01 µM [rising, single point]"
9,COc1ccc(CCNC(=O)c2cc(-c3cccs3)on2)cc1OC,"1 µM [rising, single point]"
10,C=CCn1c(SCc2ccc(Cl)cc2)nc2c1c(=O)[nH]c(=O)n2C,"10 µM [rising, partial curve]"
11,CCOc1cc(C(=O)Nc2ncccn2)cc(OCC)c1OCC,"0.00398 µM [falling, full curve, poor fit]"
12,CN(C)C(=O)c1ccc(-c2ccc3ncnc(NCc4ccccc4)c3c2)cc1,"7.94 µM [rising, partial curve]"
13,CCOC(=O)c1ccccc1NC(=O)Cn1cnc2c(oc3ccccc32)c1=O,"3.16 µM [rising, full curve, poor fit]"
14,CC12CCC(=O)N1C(C(=O)OCC(=O)Nc1sccc1C#N)CS2 (centres undefined),"3.98 µM [falling, single point]"
15,COC(=O)c1c(NC(=O)CCCC(=O)O)sc(C)c1C,"10 µM [rising, partial curve]"
16,CCN(CC)CCN1C(=O)C(O)=C(C(=O)c2ccc(C)o2)C1c1ccccn1 (centres undefined),"1.26 µM [rising, partial curve]"
17,CCCc1nc(SC2CCCC2)c2c(=O)n(C)c(=O)n(C)c2n1,"2 µM [rising, full curve]"
18,Fc1cnc(N2CCOCC2)nc1N1CCc2ccccc21,"12.6 µM [rising, single point]"
19,C=CCn1c(SCC(=O)c2ccc(O)c(O)c2)nnc1-c1ccccc1OC,"0.316 µM [falling, full curve]"

# Two of the compounds above, as tab-separated lines:
row	Structure (SMILES)	AC50
9	COc1ccc(CCNC(=O)c2cc(-c3cccs3)on2)cc1OC	1 µM [rising, single point]
10	C=CCn1c(SCc2ccc(Cl)cc2)nc2c1c(=O)[nH]c(=O)n2C	10 µM [rising, partial curve]
